Values of other authors as cited in US7982057B2, “Compound of stemphones and production thereof” (The Kitasato Institute, priority 2006, dated 2011).
For at least one compound, name, drawing or mass did not settle the structure.

Test system: methicillin resistant Staphylococcus aureus
Conditions: without stemphone C substance; cited from earlier work

C[C@@H](O)[C@H]1C(=O)N2C(C(=O)O)=C(SCCN=CN)C[C@H]12 [imipenem]
MIC of imipenem alone: 16 µg/mL
